Data source: PubChem BioAssay AID1159578 (Peter MacCallum Cancer Centre, 2015)
This is one part, drawn at random, of about 18,000 deposited reagents. About 1,030 of them (5.7%) were called active. 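Inactive calls also include pools with fewer than 3300 nuclei, whose migration was not assessed.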 Raw values vary from plate to plate and are shown uncorrected. Unmarked entries are inactive. Not all columns of the deposit are shown.

Test: 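Genome-wide hunt for genes controlling movement of lymphatic endothelial cells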 (primary screen)
Cell system: human lymphatic endothelial cells
Reagents: siRNA pool against human genes, 40 nM
Timing: 48 h after transfection
Measurement: 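Cells stained with dye and imaged after a scratch; covered wound area and nuclei counted, duplicates averaged, migration set against mock wells and turned into a robust z-score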
Direction: migration robust z-score: higher = faster migration into the scratch; nuclei per well: higher = more cells in the well
Call rule: 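Migration changed when robust z exceeds 2 or falls below -2 and mean nuclei number is at least 3300; otherwise not called changed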
Meaning of the calls: active = migration changed; inactive = no migration change, or too few cells

| gene knocked down | PubChem SID | migration robust z-score | nuclei per well, duplicate mean |
| --- | --- | --- | --- |
| BCL2L10 (BCL2 like 10) | SID255354745 | -0.96 | 6517 |
| CLCN7 (Cl-/H+ antiporter 7) | SID255348955 | -3.19 (active) | 3958 |
| UCKL1 (uridine-cytidine kinase 1 like 1) | SID255358308 | 0.73 | 5904 |
| EMC7 (ER membrane protein complex subunit 7) | SID255359131 | 0.7 | 8041 |
| OR2A4 (olfactory receptor family 2 subfamily A member 4) | SID255360297 | 0.6 | 5734 |
| PRSS48 (serine protease 48) | SID255365187 | -0.68 | 5329 |
| CAMK2D (calcium/calmodulin dependent protein kinase II delta) | SID255348678 | -1.53 | 4810 |
| SNCG (synuclein gamma) | SID255352543 | 0.4 | 6524 |
| FOCAD (focadhesin) | SID255358264 | -0.78 | 5366 |
| PRXL2C (peroxiredoxin like 2C) | SID255363952 | -1.41 | 4133 |
| CACNG2 (calcium voltage-gated channel auxiliary subunit gamma 2) | SID255355026 | -0.83 | 4076 |
| MTPN (myotrophin) | SID255363012 | 2.02 (active) | 5871 |
| PRDM2 (PR/SET domain 2) | SID255353300 | -0.16 | 5102 |
| CDY1B (chromodomain Y-linked 1B) | SID255364416 | -0.26 | 5504 |
| POP5 (POP5 ribonuclease P/MRP subunit) | SID255357680 | 0.02 | 5882 |
| OSBPL5 (oxysterol binding protein like 5) | SID255362262 | -0.3 | 6012 |
| ANKRD20A2P (ankyrin repeat domain 20 family member A2, pseudogene) | SID255365942 | 0 | 5418 |
| MX2 (MX dynamin like GTPase 2) | SID255351081 | 0.47 | 5008 |
| FER1L6 (fer-1 like family member 6) | SID255366160 | -2.81 (active) | 6006 |
| ADAM11 (ADAM metallopeptidase domain 11) | SID255350910 | 0.1 | 5804 |
| ZNF474 (zinc finger protein 474) | SID255362956 | 0.06 | 5928 |
| MYH11 (myosin heavy chain 11) | SID255351106 | -1.06 | 4419 |
| RETN (resistin) | SID255359120 | 0.55 | 6175 |
| TECPR1 (tectonin beta-propeller repeat containing 1) | SID255356509 | 0.37 | 6008 |
| LRRN1 (leucine rich repeat neuronal 1) | SID255359518 | 0.64 | 6424 |
| RPAP3 (RNA polymerase II associated protein 3) | SID255360364 | -0.39 | 5467 |
| BTBD6 (BTB domain containing 6) | SID255361786 | 0.22 | 5784 |
| NECTIN3 (nectin cell adhesion molecule 3) | SID255356570 | 0.73 | 5014 |
| TBC1D13 (TBC1 domain family member 13) | SID255358117 | -1.25 | 5551 |
| LYST (lysosomal trafficking regulator) | SID255348914 | -0.26 | 1757 |
| SPATA31D1 (SPATA31 subfamily D member 1) | SID255365576 | 1.34 | 5822 |
| TLCD3B (TLC domain containing 3B) | SID255361075 | -0.03 | 5431 |
| MEX3C (mex-3 RNA binding family member C) | SID255357651 | -1.53 | 3540 |
| CARTPT (CART prepropeptide) | SID255354407 | -0.78 | 4956 |
| IRX2 (iroquois homeobox 2) | SID255363569 | -0.07 | 4914 |
| ZNF652 (zinc finger protein 652) | SID255355802 | 1.38 | 7620 |
| RFC5 (replication factor C subunit 5) | SID255352099 | -0.47 | 5122 |
| DCLRE1B (DNA cross-link repair 1B) | SID255360035 | 0.17 | 6069 |
| LRP5L (LDL receptor related protein 5 like (pseudogene)) | SID255361905 | 0.45 | 6801 |

Copied from the entries so far for reference:
| gene knocked down | PubChem SID | migration robust z-score | nuclei per well, duplicate mean |
| --- | --- | --- | --- |
| RETN (resistin) | SID255359120 | 0.55 | 6175 |
| TECPR1 (tectonin beta-propeller repeat containing 1) | SID255356509 | 0.37 | 6008 |
| LRRN1 (leucine rich repeat neuronal 1) | SID255359518 | 0.64 | 6424 |
| RPAP3 (RNA polymerase II associated protein 3) | SID255360364 | -0.39 | 5467 |
| BTBD6 (BTB domain containing 6) | SID255361786 | 0.22 | 5784 |
| NECTIN3 (nectin cell adhesion molecule 3) | SID255356570 | 0.73 | 5014 |
